Laboratory results reported in publication PMC4850058, “TRIP6 antagonizes the recruitment of A20 and CYLD to TRAF6 to promote the LPA2 receptor-mediated TRAF6 activation” (Cell Discovery, 2016).
Results are given in words; binding and its absence hold for the method and conditions named. Binding seen in cells or lysates may run through a third protein. For some of these results: A result given as binding can be weak or reduced; the word gives no strength. For some of these results: Where a sequence is shown, tags or fusion partners need not be part of it.

Amino acid sequences for entries named in this document (tags omitted). A change or cut given only in a name is not applied to a line headed by its entry.
UniProt Q15654: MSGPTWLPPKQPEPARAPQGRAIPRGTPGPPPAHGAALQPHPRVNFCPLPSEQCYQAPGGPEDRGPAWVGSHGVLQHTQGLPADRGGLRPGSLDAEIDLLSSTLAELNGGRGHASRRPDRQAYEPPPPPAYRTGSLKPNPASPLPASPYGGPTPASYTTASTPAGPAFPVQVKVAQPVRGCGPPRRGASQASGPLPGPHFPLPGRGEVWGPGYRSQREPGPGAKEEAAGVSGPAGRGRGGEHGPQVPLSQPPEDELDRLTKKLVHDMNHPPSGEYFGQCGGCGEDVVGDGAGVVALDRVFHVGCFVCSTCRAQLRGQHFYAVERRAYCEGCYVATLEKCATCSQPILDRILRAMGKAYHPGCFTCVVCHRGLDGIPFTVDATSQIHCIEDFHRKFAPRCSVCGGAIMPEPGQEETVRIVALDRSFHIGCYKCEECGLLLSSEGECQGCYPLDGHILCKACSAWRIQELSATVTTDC

Tests used:
FLAG-TRAF6 = molecular target: T1, FLAG-TRAF6 (UniProt P70196); assay: co-IP; FLAG-TRAF6 immunoprecipitated from HEK293T without or with co-expressed TRIP6 as competitor (HA-TRIP6; EGFP-TRIP6 or its deletion mutants); starved 6 h, without or with LPA; immunoblot for endogenous A20, CYLD
T1 sequence: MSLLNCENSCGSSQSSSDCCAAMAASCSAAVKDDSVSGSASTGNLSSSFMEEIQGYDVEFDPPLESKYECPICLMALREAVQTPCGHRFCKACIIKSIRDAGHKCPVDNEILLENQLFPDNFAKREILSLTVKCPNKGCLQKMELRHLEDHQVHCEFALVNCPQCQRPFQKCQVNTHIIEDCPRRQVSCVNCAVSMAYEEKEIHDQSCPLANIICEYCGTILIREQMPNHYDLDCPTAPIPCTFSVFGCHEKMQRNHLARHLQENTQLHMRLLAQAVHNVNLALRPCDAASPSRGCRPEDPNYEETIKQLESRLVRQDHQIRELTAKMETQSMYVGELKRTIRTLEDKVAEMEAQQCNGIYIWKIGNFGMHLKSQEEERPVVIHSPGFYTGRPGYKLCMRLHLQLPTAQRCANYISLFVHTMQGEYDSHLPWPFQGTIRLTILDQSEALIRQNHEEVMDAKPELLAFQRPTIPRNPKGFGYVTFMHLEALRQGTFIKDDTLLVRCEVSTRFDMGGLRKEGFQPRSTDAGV

[1] = molecular target: C311A/C314A mutant FLAG-LPA2 receptor; assay: co-IP; FLAG-LPA2 receptor immunoprecipitated with anti-FLAG M2 agarose from LPA1/2 DKO MEFs; starved 5 h, 2 μM LPA 30 min; immunoblot for endogenous TRIP6 and TRAF6
[2] = molecular target: FLAG-LPA2 receptor, wild type; assay: as above

Molecule	binding (FLAG-TRAF6)	binding [1]	binding [2]
EGFP-ΔLIM1 mutant of TRIP6 (from UniProt Q15654)	binds	–	–
TRIP6, endogenous in mouse embryonic fibroblasts (protein, UniProt Q9Z1Y4 1-480) MSGPTWLPPKQPEPSRLPQGRSLPRGALGPPTAHGATLQPHPRVNFCPLPPEHCYQPPGVPEDRGPTWVGSHGTPQRLQGLPPDRGIIRPGSLDAEIDSLTSMLADLDGGRSHAPRRPDRQAFEAPPPHAYRGGSLKPSGGAVPTPMLPASHYGGPTPASYATASTPAGPAFPVQVKVAQPVRGCGLPRRGASQASGPLPGPHFPLTGRGEVWGAGYRSHREPGPGVPEGPSGVHIPAGGGRGGGHEPQGPLGQPPEEELERLTKKLVHDMSHPPSGEYFGRCGGCGEDVVGDGAGVVALDRVFHIGCFVCSTCRAQLRGQHFYAVERRAYCESCYVATLEKCSTCSEPILDRILRAMGKAYHPGCFTCVVCHRGLDGIPFTVDATSQIHCIEDFHRKFAPRCSVCGGAIMPEPGQEETVRIVALDRSFHIGCYKCEECGLLLSSEGECQGCYPLDGHILCKACSAWRIQELSATVTTDC	–	no binding	binds
TRAF6, endogenous in mouse embryonic fibroblasts (protein, UniProt P70196 1-530) MSLLNCENSCGSSQSSSDCCAAMAASCSAAVKDDSVSGSASTGNLSSSFMEEIQGYDVEFDPPLESKYECPICLMALREAVQTPCGHRFCKACIIKSIRDAGHKCPVDNEILLENQLFPDNFAKREILSLTVKCPNKGCLQKMELRHLEDHQVHCEFALVNCPQCQRPFQKCQVNTHIIEDCPRRQVSCVNCAVSMAYEEKEIHDQSCPLANIICEYCGTILIREQMPNHYDLDCPTAPIPCTFSVFGCHEKMQRNHLARHLQENTQLHMRLLAQAVHNVNLALRPCDAASPSRGCRPEDPNYEETIKQLESRLVRQDHQIRELTAKMETQSMYVGELKRTIRTLEDKVAEMEAQQCNGIYIWKIGNFGMHLKSQEEERPVVIHSPGFYTGRPGYKLCMRLHLQLPTAQRCANYISLFVHTMQGEYDSHLPWPFQGTIRLTILDQSEALIRQNHEEVMDAKPELLAFQRPTIPRNPKGFGYVTFMHLEALRQGTFIKDDTLLVRCEVSTRFDMGGLRKEGFQPRSTDAGV	–	no binding	–
